The effect of the compound repeats well; differences between the knockouts mostly do not.
Legend:
[1] = system: HCC-38; test: relative cell number vs DMSO control (72 h) (% of DMSO); higher = less growth inhibition (more cells)
Method: (§1)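 QMAP-Seq: a pool of 5 breast cancer cell lines (ZR-75-1, SKBR3, HCC-38, MDA-MB-231, BT-20), each carrying 12 doxycycline-inducible Cas9 sgRNA perturbations (11 knockouts plus non-targeting sgNT), was treated with compounds for 72 h at four 10-fold doses (10 nM-10 uM or 1 nM-1 uM range). Barcodes were amplified and sequenced, and cell number was interpolated from 293T spike-in standard curves. The result is expressed as % of the median of DMSO wells. Two biological replicates.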

[2] = system: BT-20; test: as above
Method: as §1

C=CC(=O)Nc1cc2c(Nc3ccc(F)c(Cl)c3)ncnc2cc1OCCCN1CCOCC1 [Canertinib]
relative cell number
Details | [1] | [2]
sgRNA knockout: sgATF3, 10 nM | 98.2 | 89.4
sgRNA knockout: sgATF3, 100 nM | 93.74 | 68.6
sgRNA knockout: sgATF3, 1000 nM | 85.1 | 89.2
sgRNA knockout: sgATF3, 10000 nM | 8.61 | 33
sgRNA knockout: sgATF4, 10 nM | 97.4 | 92
sgRNA knockout: sgATF4, 100 nM | 110 | 86.4
sgRNA knockout: sgATF4, 1000 nM | 81.2 | 75.9
sgRNA knockout: sgATF4, 10000 nM | 9.98 | 30.7
sgRNA knockout: sgATF6, 10 nM | 105 | 86.6
sgRNA knockout: sgATF6, 100 nM | 84.3 | 60.7
sgRNA knockout: sgATF6, 1000 nM | 88 | 77
sgRNA knockout: sgATF6, 10000 nM | 8.29 | 38
sgRNA knockout: sgATG7, 10 nM | 96.6 | 91
sgRNA knockout: sgATG7, 100 nM | 103 | 78.1
sgRNA knockout: sgATG7, 1000 nM | 82.1 | 74.4
sgRNA knockout: sgATG7, 10000 nM | 7.85 | 39.5
sgRNA knockout: sgERN1, 10 nM | 93.4 | 80.2
sgRNA knockout: sgERN1, 100 nM | 96.4 | 71.2
sgRNA knockout: sgERN1, 1000 nM | 79.2 | 70.8
sgRNA knockout: sgERN1, 10000 nM | 8.04 | 36.3
sgRNA knockout: sgHSF1, 10 nM | 85.9 | 89.6
sgRNA knockout: sgHSF1, 100 nM | 80 | 73.6
sgRNA knockout: sgHSF1, 1000 nM | 83.4 | 77.2
sgRNA knockout: sgHSF1, 10000 nM | 12.6 | 37.6
sgRNA knockout: sgHSF2, 10 nM | 94.5 | 76.9
sgRNA knockout: sgHSF2, 100 nM | 108 | 75.7
sgRNA knockout: sgHSF2, 1000 nM | 82.6 | 78.2
sgRNA knockout: sgHSF2, 10000 nM | 13.4 | 34.2
sgRNA knockout: sgKEAP1, 10 nM | 97.9 | 84.2
sgRNA knockout: sgKEAP1, 100 nM | 95.4 | 90.25
sgRNA knockout: sgKEAP1, 1000 nM | 83 | 73.6
sgRNA knockout: sgKEAP1, 10000 nM | 6.79 | 33.9
sgRNA knockout: sgNFE2L2, 10 nM | 96.5 | 74
sgRNA knockout: sgNFE2L2, 100 nM | 106 | 74.4
sgRNA knockout: sgNFE2L2, 1000 nM | 78.2 | 71.4
sgRNA knockout: sgNFE2L2, 10000 nM | 8.19 | 36.8
sgRNA knockout: sgSLC35F2, 10 nM | 94.5 | 83.6
sgRNA knockout: sgSLC35F2, 100 nM | 101 | 81.6
sgRNA knockout: sgSLC35F2, 1000 nM | 85.5 | 72.5
sgRNA knockout: sgSLC35F2, 10000 nM | 10.1 | 41.2
sgRNA knockout: sgXBP1, 10 nM | 97.6 | 86.7
sgRNA knockout: sgXBP1, 100 nM | 100 | 97.1
sgRNA knockout: sgXBP1, 1000 nM | 79.5 | 79
sgRNA knockout: sgXBP1, 10000 nM | 9.02 | 35.7

CS(=O)(=O)CCNCc1ccc(-c2ccc3ncnc(Nc4ccc(OCc5cccc(F)c5)c(Cl)c4)c3c2)o1 [Lapatinib]
relative cell number
Details | [1] | [2]
sgRNA knockout: sgATF3, 10 nM | 95.3 | 106.6
sgRNA knockout: sgATF3, 100 nM | 79.62 | 92.5
sgRNA knockout: sgATF3, 1000 nM | 98.7 | 87.3
sgRNA knockout: sgATF3, 10000 nM | 61.3 | 56.86
sgRNA knockout: sgATF4, 10 nM | 95.3 | 105
sgRNA knockout: sgATF4, 100 nM | 77.8 | 97
sgRNA knockout: sgATF4, 1000 nM | 90.4 | 91.4
sgRNA knockout: sgATF4, 10000 nM | 53.6 | 54.9
sgRNA knockout: sgATF6, 10 nM | 84.91 | 84.8
sgRNA knockout: sgATF6, 100 nM | 101 | 83.2
sgRNA knockout: sgATF6, 1000 nM | 101 | 98.7
sgRNA knockout: sgATF6, 10000 nM | 59.4 | 51.5
sgRNA knockout: sgATG7, 10 nM | 87.7 | 103.6
sgRNA knockout: sgATG7, 100 nM | 83.8 | 89.7
sgRNA knockout: sgATG7, 1000 nM | 92.9 | 94.9
sgRNA knockout: sgATG7, 10000 nM | 55.3 | 56.8
sgRNA knockout: sgERN1, 10 nM | 91.9 | 80.3
sgRNA knockout: sgERN1, 100 nM | 83.5 | 79.4
sgRNA knockout: sgERN1, 1000 nM | 91.7 | 89.7
sgRNA knockout: sgERN1, 10000 nM | 64.7 | 51.5
sgRNA knockout: sgHSF1, 10 nM | 92 | 96.5
sgRNA knockout: sgHSF1, 100 nM | 91.7 | 99.4
sgRNA knockout: sgHSF1, 1000 nM | 110 | 78.4
sgRNA knockout: sgHSF1, 10000 nM | 71.6 | 56.7
sgRNA knockout: sgHSF2, 10 nM | 103 | 83.8
sgRNA knockout: sgHSF2, 100 nM | 86.4 | 76.4
sgRNA knockout: sgHSF2, 1000 nM | 102 | 91
sgRNA knockout: sgHSF2, 10000 nM | 62.8 | 63.9
sgRNA knockout: sgKEAP1, 10 nM | 93.8 | 101
sgRNA knockout: sgKEAP1, 100 nM | 97.9 | 80.7
sgRNA knockout: sgKEAP1, 1000 nM | 89.4 | 88.5
sgRNA knockout: sgKEAP1, 10000 nM | 60.3 | 55.8
sgRNA knockout: sgNFE2L2, 10 nM | 88.2 | 92.1
sgRNA knockout: sgNFE2L2, 100 nM | 77.8 | 101
sgRNA knockout: sgNFE2L2, 1000 nM | 87.9 | 97.4
sgRNA knockout: sgNFE2L2, 10000 nM | 51.17 | 68.7
sgRNA knockout: sgSLC35F2, 10 nM | 90.7 | 95.7
sgRNA knockout: sgSLC35F2, 100 nM | 74.2 | 95.3
sgRNA knockout: sgSLC35F2, 1000 nM | 88.8 | 92.4
sgRNA knockout: sgSLC35F2, 10000 nM | 58.7 | 55.7
sgRNA knockout: sgXBP1, 10 nM | 91.8 | 103
sgRNA knockout: sgXBP1, 100 nM | 81.6 | 88
sgRNA knockout: sgXBP1, 1000 nM | 83.9 | 91
sgRNA knockout: sgXBP1, 10000 nM | 57 | 64.6

Cn1cnc2c(F)c(Nc3ccc(Br)cc3Cl)c(C(=O)NOCCO)cc21 [Selumetinib]
relative cell number
Details | [1] | [2]
sgRNA knockout: sgATF3, 10 nM | 94.4 | 86.7
sgRNA knockout: sgATF3, 100 nM | 85.8 | 80
sgRNA knockout: sgATF3, 1000 nM | 82.516 | 95.8
sgRNA knockout: sgATF3, 10000 nM | 81.4 | 85.7
sgRNA knockout: sgATF4, 10 nM | 93.69 | 88
sgRNA knockout: sgATF4, 100 nM | 87.1 | 72.7
sgRNA knockout: sgATF4, 1000 nM | 79.1 | 86.1
sgRNA knockout: sgATF4, 10000 nM | 79.6 | 73.3
sgRNA knockout: sgATF6, 10 nM | 96.7 | 80.7
sgRNA knockout: sgATF6, 100 nM | 84.8 | 88.5
sgRNA knockout: sgATF6, 1000 nM | 78.7 | 99
sgRNA knockout: sgATF6, 10000 nM | 76.2 | 79
sgRNA knockout: sgATG7, 10 nM | 94.7 | 94
sgRNA knockout: sgATG7, 100 nM | 79.7 | 75.4
sgRNA knockout: sgATG7, 1000 nM | 79.1 | 78.5
sgRNA knockout: sgATG7, 10000 nM | 80.9 | 81.6
sgRNA knockout: sgERN1, 10 nM | 96.8 | 87.3
sgRNA knockout: sgERN1, 100 nM | 81.1 | 76.7
sgRNA knockout: sgERN1, 1000 nM | 89.4 | 66.6
sgRNA knockout: sgERN1, 10000 nM | 82.7 | 88
sgRNA knockout: sgHSF1, 10 nM | 80.3 | 81.2
sgRNA knockout: sgHSF1, 100 nM | 71.9 | 81.2
sgRNA knockout: sgHSF1, 1000 nM | 83.1 | 85.3
sgRNA knockout: sgHSF1, 10000 nM | 83.7 | 82.1
sgRNA knockout: sgHSF2, 10 nM | 101 | 94.6
sgRNA knockout: sgHSF2, 100 nM | 91.3 | 74.7
sgRNA knockout: sgHSF2, 1000 nM | 80.2 | 103
sgRNA knockout: sgHSF2, 10000 nM | 84.4 | 76.8
sgRNA knockout: sgKEAP1, 10 nM | 82 | 76.3
sgRNA knockout: sgKEAP1, 100 nM | 81.3 | 78.7
sgRNA knockout: sgKEAP1, 1000 nM | 86.6 | 92.6
sgRNA knockout: sgKEAP1, 10000 nM | 90.6 | 78.8
sgRNA knockout: sgNFE2L2, 10 nM | 91.1 | 88.3
sgRNA knockout: sgNFE2L2, 100 nM | 86.4 | 72.5
sgRNA knockout: sgNFE2L2, 1000 nM | 75.5 | 100
sgRNA knockout: sgNFE2L2, 10000 nM | 73.4 | 72.1
sgRNA knockout: sgSLC35F2, 10 nM | 84 | 86.3
sgRNA knockout: sgSLC35F2, 100 nM | 85 | 77.05
sgRNA knockout: sgSLC35F2, 1000 nM | 80.4 | 98.6
sgRNA knockout: sgSLC35F2, 10000 nM | 76.5 | 90.3
sgRNA knockout: sgXBP1, 10 nM | 90 | 88
sgRNA knockout: sgXBP1, 100 nM | 91.3 | 78
sgRNA knockout: sgXBP1, 1000 nM | 78.7 | 102
sgRNA knockout: sgXBP1, 10000 nM | 79.9 | 85

Source: the supplement of paper PMC7661543
